Measurements reported in article PMC8965321.
Results are given in words; binding and its absence hold for the method and conditions named. Binding seen in cells or lysates may run through a third protein. Here binding means that the protein was enriched with, or labelled near, the bait; the list need not be complete.

Target: GP46F13-His tagged protein immobilised on Ni-NTA agarose (bait) (Lactococcus lactis phage vB_Llc_bIBBF13 (F13))
Test: affinity purification with mass spectrometry; GP46F13-His tagged protein immobilised on Ni-NTA agarose; crude lysates of L. lactis IL1403 at 0, 5, 10, 15 min after infection with phage F13 added, overnight at 4°C; washed with 100 volumes of 50 mM Tris-HCl pH 8, 500 mM NaCl, 20 mM imidazole; resin-bound proteins analysed by LC-MS; hits normalized against control resin without tagged GP46F13; only the target purified

Row | binding | Binder
1 | binds | DnaJ of Lactococcus lactis IL1403 (protein, UniProt P35514 1-379) MNNTEYYERLGVDKNASQDEIKKAYRKMSKKYHPDLNKEEGAEEKYKEVQEAYETLSDEQKRAAYDQYGEAGANGGFGGGGFGGASGFSGFGGGSGGFGGFEDIFSSFFGGGGAQVNPNAPRQGDDLQYRINLKFEEAIFGVEKQVKYNREELCHTCGGSGAKAGTHPETCHKCGGRGQINVVRDTPLGRMQTQVTCDVCNGTGKEIKEKCETCHGSGHEKVAHTVKVTVPAGVETGQKMRLQGQGDAGVNGGPYGDLYVVFQVEASDKFERDGAEIYYKMPMDFVQAALGDEIEVPTVHGNVKLKIPAGTQTGANFRLKGKGAPKLRGSGNGDQYVIINIVTPKNLNQAQKEALQAFAKASGVEVSGSGKKGFFDKFK
2 | binds | topoisomerase I of Lactococcus lactis IL1403 (enzyme, UniProt Q9CG80 1-710) MPTSTKSKTKTTTKKKTTRKRVTPGKNLVIVESPAKAKTIEKYLGRNYKVVASVGHIRDLKKSTMSVDIENDYEPQYINIRGKAPLINSLKKEAKAAKAVYLASDPDREGEAISWHLAHILNLPLEEKNRVVFNEITKDAVKNAFKEPRQIDVDLVDAQQARRVLDRLVGYSISPILWKKVKKGLSAGRVQSIALKLIVDRENEINAFIPEEYWSIDGEFKKGTKKFKASFWGIDGKKHPLKTNEDVIKVMERLDGPDFNVDKVEKKERRRNAPLPYTTSSMQQDAANKLNFRTRKTMMVAQQLYEGLTLGSQGHQGLITYMRTDSTRISPVAQSAAHNYIADQFGEKYSKHGSKVKNASGAQDAHEAIRPSNVFNTPDAIAKYLDKDQLKLYTLIWNRFVASQMVAAIFDTVKVNLSQNGVIFIANGSQVKFDGYLRIYNDSDKSNMLPEMEENETVKKANVKPEQHFTQPPARYSEATLIKTLEENGVGRPSTYAPTLETIQKRYYVRLSAKRFEPTELGEIVNKLIVEFFPNIVNTEFTAEMEKDLDEVEEGKRQWIEVVDQFYKPFAKELENAEEGMEKIQIKDEPAGFDCDVCGSPMVIKLGRFGKFYACSNFPDCRNTKAIVKEIGVKCPLCHEGNIIERKTKKNRIFYGCDRYPDCEFTSWDKPIGRDCPKSGHFLVEKKVRGGGKQVVCSNDECDYQEEKQK
3 | binds | single-strand binding protein (SSB) of Lactococcus lactis IL1403 (protein, UniProt Q9CDM9 1-166) MINNVVLVGRITRDPELRYTPQNQAVATFSLAVNRQFKNANGEREADFINCVIWRQQAENLANWAKKGALIGVTGRIQTRNYENQQGQRVYVTEVVADSFQMLESRSAREGMGGGTSAGSYSAPSQSTNNTPRPQTNNNNATPNFGRDADPFGSSPMEISDDDLPF
